Results: the supplement of paper PMC8104966
Some of the results follow. This data set is noisy: repeats of one test often differ as much as different tests do.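 U2OS cells carrying ACE2 were mixed with U2OS cells carrying full-length spike, and fusion was scored by imaging as the share of nuclei showing both cell types' fluorescent markers. A compound counts as an inhibitory hit when it is non-toxic and its fusion z-score falls below -3, meaning more than three standard deviations below the plate's DMSO wells.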

System: U2OS ACE2 x SARS-CoV-2 spike co-culture
Experiment: cell-cell fusion (fraction fused) z-score vs plate DMSO control; higher = more fusion
Settings: 30 µM; 5 h; toxicity class: non-toxic, passed QC

Compound	cell-cell fusion (z-score)
CC(=O)NCCCS(=O)(=O)[O-].CC(=O)NCCCS(=O)(=O)[O-].[Ca+2] [Acamprosate calcium]	inactive: 1.03
COc1cc(OC)c(-c2c(OC)cc(OC)cc2OC)c(OC)c1	inactive: 2.43
CC(C)(C)[C@]1(O)CCN2C[C@H]3c4ccccc4CCc4cccc(c43)[C@@H]2C1.Cl [(+)-Butaclamol hydrochloride]	inactive: 2.18
Cc1cc(O)c2c(c1)C(=O)c1cc(O)cc(O)c1C2=O [Emodin]	inactive: 2.72
CNCC(O)c1ccc(O)cc1 (racemic) [(±)-Synephrine]	inactive: -1.49
CC(OC(=O)OC1CCCCC1)OC(=O)C1=C(CSc2nnnn2CCN(C)C)CS[C@@H]2[C@H](NC(=O)Cc3csc(N)n3)C(=O)N12.Cl.Cl (stereo partly drawn) [Cefotiam Hexetil Hydrochloride]	inactive: 0.624
CCOC(=O)NNc1nncc2ccccc12.Cl	inactive: 0.796
CC1(C)CC2C1CCC1(C)OC1CCC2(C)O (stereo not drawn)	inactive: 1.56
c1ccc(-c2ccccn2)nc1 [2,2'-Bipyridyl]	inactive: 3.7
NCCS(=O)(=O)O [Taurine]	inactive: 2.78
C[N+](C)(C)CC(=O)[O-].Cl	inactive: 0.998
CC[C@H]1C(=O)OC[C@@H]1Cc1cncn1C.O=[N+]([O-])O	inactive: 1.4
CCOC(=O)C1=C[C@]2(CC)CCCN3CCc4c(n1c1ccccc41)[C@@H]32 [Vinpocetine]	inactive: 1.42
C[C@]12C=CC(=O)C=C1CC[C@@H]1C2=CC[C@]2(C)[C@@H](C(=O)CN3CCN(c4cc(N5CCCC5)nc(N5CCCC5)n4)CC3)CC[C@@H]12.O=C(O)/C=C\C(=O)O	inactive: 6.04
Cl.c1ccc2c(c1)CCCC2C1=NCCN1 (stereo not drawn)	inactive: 2.18
Cl.Cl.N=C(NCCCCCCNC(=N)NC(=N)Nc1ccc(Cl)cc1)NC(=N)Nc1ccc(Cl)cc1 [Chlorhexidine hydrochloride]	active: -11.3
Cl.NC1(C(=O)O)CC1 [1-Aminocyclopropanecarboxylic acid hydrochloride]	inactive: 2.38
CC[N+](CC)(CC(=O)Nc1c(C)cccc1C)Cc1ccccc1.O=C([O-])c1ccccc1	inactive: 1.64
CC(C)(CO)c1cc2cc(NC(=O)C3(c4ccc5c(c4)OC(F)(F)O5)CC3)c(F)cc2n1C[C@@H](O)CO	inactive: -0.726
CCOC(=O)c1ncn2c1CN(C)C(=O)c1cc(F)ccc1-2 [Flumazenil]	inactive: 2.29
C=C1CCC(C2CC(=O)OC2=O)C(=O)CCC2C1CC2(C)C (stereo not drawn)	inactive: 2.63
COc1ccc2c(c1)OCC(Cc1ccc(OC)c(OC)c1)C2=O (stereo not drawn)	inactive: 2
NC(=O)NCCCC(N)C(=O)O (stereo not drawn)	inactive: 2.56
O=C(O)c1ccc(S(=O)(=O)N(Cl)Cl)cc1	inactive: 1.85

Random excerpt: 2 entries already listed, in no set order.
Compound	cell-cell fusion (z-score)
c1ccc(-c2ccccn2)nc1 [2,2'-Bipyridyl]	inactive: 3.7
NCCS(=O)(=O)O [Taurine]	inactive: 2.78

The listing continues:

Compound	cell-cell fusion (z-score)
CC(=O)[C@@]1(O)CC[C@H]2[C@@H]3C[C@H](C)C4=CC(=O)C=C[C@]4(C)[C@@]3(F)[C@@H](O)C[C@@]21C [Fluoromethalone]	inactive: 2.27
NS(=O)(=O)c1cc2c(cc1Cl)NC(CSCc1ccccc1)=NS2(=O)=O [Benzthiazide]	inactive: 1.95
O=C1c2cccc(O)c2C(=O)c2c(O)cccc21	inactive: 0.577
N[C@@H](Cc1c[nH]cn1)C(=O)O [histidine]	inactive: 0.996
Cn1nnnc1SCC1=C(C(=O)[O-])N2C(=O)[C@@H](NC(=O)[C@H](OC=O)c3ccccc3)[C@H]2SC1.[Na+] [Cefamandole nafate]	inactive: 0.958
Oc1cc(Cl)ccc1Oc1ccc(Cl)cc1Cl [Triclosan]	inactive: -0.652
NCCCCCCCCCCN [1,10-Diaminodecane]	inactive: 2.56
C#Cc1cccc(Nc2ncnc3cc4c(cc23)OCCOCCOCCO4)c1 [Icotinib]	inactive: -2.11
Clc1ccc2c(c1)N=C(N1CCNCC1)c1ccccc1N2 [N-Desmethylclozapine]	inactive: -2.63
C[C@H]1C(=O)CCC2[C@]3(C)CC[C@@]4(C)C5CC(C)(C)CC[C@]5(C)CC[C@]4(C)C3CC[C@@]21C (stereo partly drawn)	inactive: 2.32
COc1cc(C)c(/C=C/C(C)=C/C=C/C(C)=C/C(=O)O)c(C)c1C [Acitretin]	inactive: 2.06
OC(Cn1cncn1)(Cn1cncn1)c1ccc(F)cc1F	inactive: 2.36
COC(=O)C1=C(C)NC(C)=C(C(=O)OC(C)C)C1c1cccc2nonc12 (stereo not drawn)	inactive: 1.65
CC1(C)OC(=O)NC1=O	inactive: 1.82
CC1(C)OC(=O)NC1=O [5,5-Dimethyloxazolidine-2,4-dione]	inactive: 1.67
C=CCN1C[C@@H](C)N([C@H](c2ccc(C(=O)N(CC)CC)cc2)c2cccc(OC)c2)C[C@@H]1C	inactive: 3.01
C=CCC1(C(C)CCC)C(=O)N=C([S-])NC1=O.[Na+] (stereo not drawn)	inactive: 0.372
Oc1ccc(Cl)c2c1CCC2	inactive: -0.146
CCOC(=O)C(C)Oc1cccc2c(=O)n(CC(=O)Nc3ccc4c(c3)OCCO4)ccc12 (stereo not drawn)	inactive: 1.13
CC1(C)C(=O)N(CCN2CCC(C(=O)c3ccc(F)cc3)CC2)c2ccccc21.Cl [LY-310,762 hydrochloride]	inactive: 3.55
COc1c(C)c2c(c(O)c1C/C=C(\C)CCC(=O)OCCN1CCOCC1)C(=O)OC2 [Mycophenolate mofetil (CellCept)]	inactive: 1.33
CCc1ccc(/C=C2/SC(=S)NC2=O)cc1	inactive: 0.918
CC(/C=C/C(=O)NO)=C\[C@@H](C)C(=O)c1ccc(N(C)C)cc1 [Trichostatin A (TSA)]	inactive: 0.75
C[N+](C)(C)CCOC(=O)CCC(=O)OCC[N+](C)(C)C.[Cl-].[Cl-] [Succinylcholine chloride]	inactive: 3.26

Not a retest: an excerpt of the list.
Compound	cell-cell fusion (z-score)
Clc1ccc2c(c1)N=C(N1CCNCC1)c1ccccc1N2 [N-Desmethylclozapine]	inactive: -2.63
C[C@H]1C(=O)CCC2[C@]3(C)CC[C@@]4(C)C5CC(C)(C)CC[C@]5(C)CC[C@]4(C)C3CC[C@@]21C (stereo partly drawn)	inactive: 2.32
